## Percent effect of library compounds

Sequences of proteins named here, by UniProt entry; tags and fusion partners are left off.
UniProt P9WFT3, whole entry: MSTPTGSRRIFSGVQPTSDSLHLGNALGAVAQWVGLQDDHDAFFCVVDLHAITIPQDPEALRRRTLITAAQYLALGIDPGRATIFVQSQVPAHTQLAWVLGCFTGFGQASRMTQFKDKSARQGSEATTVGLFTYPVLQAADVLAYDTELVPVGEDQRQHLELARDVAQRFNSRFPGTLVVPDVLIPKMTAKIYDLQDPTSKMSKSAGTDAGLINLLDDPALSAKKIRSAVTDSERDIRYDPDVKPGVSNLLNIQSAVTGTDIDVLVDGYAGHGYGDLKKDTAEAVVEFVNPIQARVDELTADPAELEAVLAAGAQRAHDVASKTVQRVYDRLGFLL
UniProt I6X8D2, whole entry: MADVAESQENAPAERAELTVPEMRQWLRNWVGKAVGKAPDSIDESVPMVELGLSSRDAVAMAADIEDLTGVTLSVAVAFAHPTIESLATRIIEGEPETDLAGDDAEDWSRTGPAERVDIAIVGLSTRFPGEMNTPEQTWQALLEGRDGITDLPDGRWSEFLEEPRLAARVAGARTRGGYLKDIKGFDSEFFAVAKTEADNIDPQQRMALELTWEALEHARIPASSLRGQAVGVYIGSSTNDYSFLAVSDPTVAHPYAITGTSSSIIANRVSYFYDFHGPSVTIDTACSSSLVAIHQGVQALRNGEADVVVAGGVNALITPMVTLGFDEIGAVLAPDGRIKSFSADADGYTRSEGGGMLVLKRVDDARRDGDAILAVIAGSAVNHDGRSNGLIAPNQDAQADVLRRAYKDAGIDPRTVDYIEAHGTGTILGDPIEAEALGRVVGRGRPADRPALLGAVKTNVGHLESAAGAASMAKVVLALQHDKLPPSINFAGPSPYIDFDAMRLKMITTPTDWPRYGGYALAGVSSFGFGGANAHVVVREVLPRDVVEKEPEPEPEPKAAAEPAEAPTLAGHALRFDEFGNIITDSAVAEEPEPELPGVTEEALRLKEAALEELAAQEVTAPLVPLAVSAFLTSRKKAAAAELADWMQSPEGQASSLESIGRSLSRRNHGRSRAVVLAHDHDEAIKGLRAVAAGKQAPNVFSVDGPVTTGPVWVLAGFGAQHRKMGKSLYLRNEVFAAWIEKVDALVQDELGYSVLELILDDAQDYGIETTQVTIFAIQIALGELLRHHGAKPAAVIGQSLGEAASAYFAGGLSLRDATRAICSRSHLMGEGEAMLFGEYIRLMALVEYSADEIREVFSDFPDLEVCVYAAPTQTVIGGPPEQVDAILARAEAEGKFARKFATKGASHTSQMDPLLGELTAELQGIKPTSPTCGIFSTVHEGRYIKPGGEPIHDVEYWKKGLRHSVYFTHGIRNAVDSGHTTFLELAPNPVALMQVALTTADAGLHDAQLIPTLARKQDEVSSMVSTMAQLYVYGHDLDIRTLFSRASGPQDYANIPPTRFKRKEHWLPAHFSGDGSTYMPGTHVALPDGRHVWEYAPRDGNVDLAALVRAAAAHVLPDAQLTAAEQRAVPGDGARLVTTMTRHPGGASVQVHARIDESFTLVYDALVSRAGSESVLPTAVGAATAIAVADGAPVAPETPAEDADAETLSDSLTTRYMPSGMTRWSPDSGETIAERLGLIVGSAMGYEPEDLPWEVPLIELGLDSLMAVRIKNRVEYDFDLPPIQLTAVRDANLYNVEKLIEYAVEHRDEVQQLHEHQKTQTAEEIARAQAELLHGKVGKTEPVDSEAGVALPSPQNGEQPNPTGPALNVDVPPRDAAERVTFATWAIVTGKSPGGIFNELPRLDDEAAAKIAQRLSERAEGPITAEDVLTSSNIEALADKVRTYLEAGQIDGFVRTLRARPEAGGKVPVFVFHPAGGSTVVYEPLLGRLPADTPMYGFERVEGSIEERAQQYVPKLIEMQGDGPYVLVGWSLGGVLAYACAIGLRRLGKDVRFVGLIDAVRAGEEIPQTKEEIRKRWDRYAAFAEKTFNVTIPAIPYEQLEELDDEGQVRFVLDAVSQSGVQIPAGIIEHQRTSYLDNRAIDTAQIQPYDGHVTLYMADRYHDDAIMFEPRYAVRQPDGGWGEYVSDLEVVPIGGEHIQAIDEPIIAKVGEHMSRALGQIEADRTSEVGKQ
UniProt P9WNZ1, whole entry: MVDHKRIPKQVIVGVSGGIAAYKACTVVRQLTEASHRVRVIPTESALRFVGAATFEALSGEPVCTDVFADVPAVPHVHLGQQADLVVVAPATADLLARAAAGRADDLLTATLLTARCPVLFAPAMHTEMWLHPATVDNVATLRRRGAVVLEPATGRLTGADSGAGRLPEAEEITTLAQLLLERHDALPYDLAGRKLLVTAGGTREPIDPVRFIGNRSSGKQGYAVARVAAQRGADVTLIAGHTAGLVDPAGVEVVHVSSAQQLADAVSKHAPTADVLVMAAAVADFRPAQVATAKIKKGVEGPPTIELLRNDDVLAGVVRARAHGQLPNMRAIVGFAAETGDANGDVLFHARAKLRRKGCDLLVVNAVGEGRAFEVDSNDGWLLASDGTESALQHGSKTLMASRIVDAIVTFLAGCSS

Measurements from “University of Dundee, Small-Polar-MMV Screening Library” (2021), ChEMBL document CHEMBL3988442.

A: 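Tryptophan-tRNA ligase, Mycobacterium tuberculosis (UniProt P9WFT3). Enzyme assay of tryptophanyl-tRNA synthetase; the read-out is not stated. Tested at 10 µM. Higher most likely means stronger inhibition; the record gives no direction and few retests gave an IC50. Size under these conditions: about 65,000 compounds, about 64 of them at 50% or above in at least one test.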
B: 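Polyketide synthase Pks13, Mycobacterium tuberculosis (UniProt I6X8D2). Enzyme assay of the thioesterase domain of polyketide synthase 13; the read-out is not stated. Concentration: 30 µM. The record gives no direction; the compounds picked for IC50 retests had high values, so higher reads as stronger inhibition. About 67,000 compounds were tested under these conditions; 0.46% (about 300) showed 50% or more at least once.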
C: 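Coenzyme A biosynthesis protein CoaBC, Mycobacterium tuberculosis (UniProt P9WNZ1). Enzyme assay of CoaBC with a phosphate dye (Biomol Green) read at 650 nm. Tested at 30 µM. Higher reads as stronger inhibition, judged from the few compounds that gave an IC50. Most strong results did not repeat in a second test. Of about 67,000 compounds tested this way, about 40 (0.06%) reached 50% or more in at least one test.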

Values are the deposited “Percent Effect”, in %. The record does not define 0% and 100%; most values in the screen are far below 50% and negative numbers occur (in some assays of this library far below -100). Compounds were drawn at random from those tested, without regard to their results. A dash means the value is not listed here; it may have been measured.

Cc1nc(NCC2CC2)nc2c1COCC21CCN(C(=O)NC(C)C)C1 (configuration not stated) read A: -5.473%; B: -32.92%; C: 2%. CCN1Cc2ccccc2CC2(CCN(CC(=O)O)CC2)C1=O read B: -43.69%; C: -3.415%. COCCN1CCC(CN(C)c2nc3c(s2)c(C)nn3C)CC1 gave A: 2.639%; B: -25.72%; C: -6.426%. Result for Cc1occc(=O)c1OCc1noc(C(=O)NCC(C)C)n1 was A: 2.467%; B: -16.13%; C: 0%.

Cc1cccc(CCC(=O)Nc2cccnc2N2CCC(O)CC2)c1 gave A: -6.058%; B: -0.9813%; C: 1.927%. For CCN1C[C@H]2[C@@H](C1)N(S(=O)(=O)c1ccccc1)CC[C@H]2OC the result was A: 3.284%; B: -4.448%; C: 1.25%. For COCC1CN(C(=O)Nc2cc(Cl)ccc2F)CCO1 (configuration not stated) the result was A: -2.801%; B: -3.418%; C: 5.697%. With NC(=O)N1CCCCCC1C1CCN(c2nccc(C(F)(F)F)n2)CC1 (configuration not stated) the screen gave A: 2.545%; B: 10.47%; C: 0.6143%.

COCCCNC(=O)c1cc(C(C)C)nc(N2CCCC2)n1 gave A: -0.9067%; B: -9.11%; C: -1.386%. For CC(NCCn1cccn1)c1cc(F)ccc1F (configuration not stated) the result was A: -1.941%; B: -17.48%; C: 3.736%. Result for CCS(=O)(=O)N1CCc2c(cccc2NC(=O)NCCOC)C1 was A: -0.7415%; B: -34.29%; C: -2.834%. CN([C@@H]1CC[C@@H](N2CCOCC2)[C@@H]1O)S(=O)(=O)c1ccccc1 read A: -6.596%; B: 6.827%; C: 0.7398%.

Cc1occc1C(=O)Nc1cnn(CCN2CCOCC2)c1 read A: 9.228%; B: -11.03%; C: 5.45%. Result for Cc1nnc([C@@H]2CC[C@@H]3[C@@H](CCN3CC3CCOCC3)O2)o1 was A: -2.705%; B: -28.67%; C: 4.277%. For O=C(NC1CCC1)[C@@H]1CCO[C@@H]2CCN(C3CCCC3)C[C@@H]21 the result was A: 0.8137%; B: -32.71%; C: 1.954%. For c1ccc2oc(CCCN3CCCC3Cn3cncn3)nc2c1 (configuration not stated) the result was A: -2.235%; B: -10.78%; C: 5.059%.

O=C1OCCN1CCSc1nnnn1CC(F)(F)F gave A: -3.309%; B: 9.617%; C: 9.2%. Result for CN(C(=O)Cc1ccccc1F)C1CCN(c2ccccn2)CC1 was A: -4.946%; B: -3.078%; C: 0.7833%. COCC(=O)N1CCC2(CC1)CCn1c(-c3cccc(OC)c3)cnc12 read A: 8.043%; B: 25.97%. With CC(C)c1ccccc1OCCNC(=O)N1CCC2(CC1)OCCO2 the screen gave A: -0.9202%; B: -12.88%; C: 0.1274%.

For COCCN1CCC(CN(C)c2nc3c(s2)c(C)nn3C)C1 (configuration not stated) the result was A: -0.8189%; B: -21.13%; C: 3.213%.

For reference, 2 entries once more:

SMILES	A	B	C
CCN1Cc2ccccc2CC2(CCN(CC(=O)O)CC2)C1=O	-	-43.69%	-3.415%
CN([C@@H]1CC[C@@H](N2CCOCC2)[C@@H]1O)S(=O)(=O)c1ccccc1	-6.596%	6.827%	0.7398%